The numbers were not newly measured in patent US7303915B2, “In vitro-differentiated retinal ganglion cells and method for producing same” (Wisconsin Alumni Research Foundation, priority 2005, dated 2007), which cites them from elsewhere.

For one data set, the system named is cGMP PDE. The following applies: Table 2; cited from earlier work.
A further data set deals with cAMP PDE. As to conditions: Table 2; cited from earlier work.

Consider `CN[C@@H]1C[C@H]2O[C@@](C)([C@@H]1OC)n1c3ccccc3c3c4c(c5c6ccccc6n2c5c31)C(=O)NC4` [staurosporine], for which the “inhibits cGMP PDE (X mark)” value with cGMP PDE was “(via”. Further, the “inhibits cAMP PDE (X mark)” value with cAMP PDE is “(via”.
